In patent US7135578B2, “Iminocyclitol inhibitors of hexoaminidase and glycosidase” (The Scripps Research Institute, priority 1999, dated 2006):
At least one compound was matched to its structure with a doubt left. Some of these results come from one statement about several compounds together.

Sequences of proteins named here, by UniProt entry; tags and fusion partners are left off. Residues count along the entry.
UniProt P07686, 50-107 limits assumed: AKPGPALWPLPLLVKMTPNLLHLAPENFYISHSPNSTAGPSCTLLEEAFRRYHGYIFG
UniProt P07686, 315-556 limits assumed: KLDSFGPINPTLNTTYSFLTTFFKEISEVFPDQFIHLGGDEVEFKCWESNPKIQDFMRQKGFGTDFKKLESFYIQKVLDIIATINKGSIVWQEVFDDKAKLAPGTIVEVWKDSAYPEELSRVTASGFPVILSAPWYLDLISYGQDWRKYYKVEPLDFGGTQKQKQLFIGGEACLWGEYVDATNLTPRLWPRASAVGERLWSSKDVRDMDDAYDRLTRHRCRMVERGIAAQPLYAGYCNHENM
UniProt P07686, 122-311 limits assumed: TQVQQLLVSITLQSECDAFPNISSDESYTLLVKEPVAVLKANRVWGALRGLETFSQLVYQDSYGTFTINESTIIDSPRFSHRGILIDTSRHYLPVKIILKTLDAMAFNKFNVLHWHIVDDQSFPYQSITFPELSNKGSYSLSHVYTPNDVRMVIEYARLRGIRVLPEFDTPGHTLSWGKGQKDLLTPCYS
UniProt P06865, 23-74 limits assumed: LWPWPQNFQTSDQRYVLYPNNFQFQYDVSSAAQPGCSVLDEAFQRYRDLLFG
UniProt P06865, 89-529: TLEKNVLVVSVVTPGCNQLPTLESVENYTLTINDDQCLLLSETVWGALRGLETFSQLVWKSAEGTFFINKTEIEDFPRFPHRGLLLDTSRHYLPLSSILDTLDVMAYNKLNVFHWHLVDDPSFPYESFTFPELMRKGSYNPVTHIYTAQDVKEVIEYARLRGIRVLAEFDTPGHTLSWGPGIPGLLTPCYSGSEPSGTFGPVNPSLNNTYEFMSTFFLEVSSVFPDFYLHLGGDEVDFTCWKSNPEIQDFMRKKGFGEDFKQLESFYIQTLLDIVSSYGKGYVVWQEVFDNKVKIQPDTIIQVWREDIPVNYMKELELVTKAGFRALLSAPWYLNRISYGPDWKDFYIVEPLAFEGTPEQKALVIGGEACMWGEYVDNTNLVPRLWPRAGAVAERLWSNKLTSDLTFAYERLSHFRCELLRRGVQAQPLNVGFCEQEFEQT

Columns and labels:
β-glucosidase = experiment: Inhibition of β-glucosidase, kinetic analysis by capillary zone electrophoresis; type: biochemical, sweet almond; conditions: up to 500 μM
Experimental: (§1) Initially, the total volume of assay solution was reduced because this is the only way to reduce the amount of enzyme and substrate used in the assay. The 96-well microtiter plate with a round bottom was used for the assay, and each well was sealed with tape. Thus, the assay was examined and carried out in a total volume of as little as 20 μL containing 1.76 mU of a glycosidase such as β-N-acetylhexosaminidase P. The electrophoresis was carried out using 50 mM borate buffer (pH 9.2˜10.2) as the electrolyte and the progress was monitored at 37° C. The injected volume of approximately 38.4 nL of a reaction mixture contained as little as 3.8 pmol of the substrate p-nitrophenyl (PNP) glycoside, thus the amount of PNP detected was less than 10^−12 mol. The peak corresponding to the p-nitrophenol, which appeared at around 6.5 min. in these conditions, was monitored at 405 nm.
(§2) The inhibition studies of compounds 1–9 against α- and β-glucosidases (from Saccharomyces sp. and sweet almond, respectively) were carried out. PNP-glycosides of the parent sugars were used as the substrates throughout the assay. The apparent Km and Vmax values for each substrate were calculated from the double-reciplocal plot of standard 1/v −1/[substrate] curve.^18 The Ki values were determined from a replot of the slopes of Lineweaver-Burk plots vs. the inhibitor concentrations.
Kinetic analyssis of β-glucosidase: To a 1-mL disposable cuvette was added 950 μL of 0.1 M acetate buffer (pH 5.0) solution, 20 μL of inhibitor solution, and 20 μL of 20 mM p-nitrophenyl-β-D-glucopyranoside solution. […] The reaction was monitored at 400 nm on a Beckmann DU-70 spectrophotometer for 15 seconds, and the initial rate of hydrolysis was calculated. […]
(§3) Condition of capillary zone electrophoresis: Assays were performed on a Waters Quanta 4000E capillary electrophoresis system, which was equipped with a 53 cm×75 μm fused i.d. silica capillary. […] Pherograms were recorded on Millennium 2010 system from Millipore Corp. […]

α-glucosidase = experiment: Inhibition of α-glucosidase, kinetic analysis by capillary zone electrophoresis; type: biochemical; conditions: Saccharomyces sp. enzyme, CZE
Experimental: as §1, §2
Kinetic analysis of α-glucosidase: To a 1-mL disposable cuvette was added 950 μL of 0.1 M phosphate buffer (pH 7.0) solution, 20 μL of inhibitor solution, and 20 μL of 20 mM p-nitrophenyl-α-D-glucopyranoside solution. […] The reaction was monitored at 400 nm on Beckmann DU-70 spectrophotometer for 15 seconds, and the initial rate of hydrolysis was calculated. […]
as §3

[1] = test system: β-N-acetylglucosaminidase; experiment: Inhibition of β-N-acetylglucosaminidase, kinetic analysis by CZE; type: biochemical; conditions: bovine kidney enzyme
Experimental: as §1, §2
Condition of capillary zone electrophoresis: Assays were performed on a Waters Quanta 4000E capillary electrophoresis system, which was equipped with a 53 cm×75 μm fused i.d. silica capillary. Detection was carried out by on-column measurement of u.v. absorption at 405 nm at 7.5 cm from the cathode. The capillary used was pretreated or regenerated with 0.1 M KOH (2 min) and elution buffer before each injection. Samples were loaded by means of hydrostatic pressure at 10 cm height for 30 sec (ca 38.4 nl). […] Pherograms were recorded on Millennium 2010 system from Millipore Corp. […]

[2] = target: T1, β-N-acetylhexosaminidase P (Homo sapiens, UniProt P07686); experiment: Inhibition of β-N-acetylhexosaminidase P from human placenta; type: biochemical; conditions: human placenta enzyme
T1 construct: Kinetic analysis of β-N-acetylhexosaminidase from human placenta; purchased Sigma Chemical Co. (St. Louis, Mo., USA); host or cells: human placenta

[3] = test system: β-N-acetylglucosaminidase; conditions: known from Takaoka et al.; cited from earlier work
[4] = target: β-N-acetylhexosaminidase A (Homo sapiens, UniProt P06865+P07686); experiment: Inhibition of β-N-acetylhexosaminidase A from human placenta; type: biochemical; design: Kinetic analysis of β-N-acetylhexosaminidase from human placenta; purchased Sigma Chemical Co. (St. Louis, Mo., USA); host or cells: human placenta; conditions: human placenta enzyme
Experimental: Condition of capillary zone electrophoresis: Assays were performed on a Waters Quanta 4000E capillary electrophoresis system, which was equipped with a 53 cm×75 μm fused i.d. silica capillary. Detection was carried out by on-column measurement of u.v. absorption at 405 nm at 7.5 cm from the cathode. The capillary used was pretreated or regenerated with 0.1 M KOH (2 min) and elution buffer before each injection. Samples were loaded by means of hydrostatic pressure at 10 cm height for 30 sec (ca 38.4 nl). Electrophoresis was performed at 20 kV using 50 mM sodium borate (pH 9.2 for β-N-Acetylglucosaminidase assays, pH 9.4 for β-glucosidase assays, pH 10.2 for α-glucosidase and β-N-acetylhexosaminidase assay) as electrolyte at a constant temperature of 37° C. Pherograms were recorded on Millennium 2010 system from Millipore Corp.
Kinetic analysis of β-N-acetylhexosaminidase from human placenta: Incubations were performed in a total volume of 20 μL. Unless otherwise stated, reaction mixtures contained 100 mM citrate buffer (pH 4.5), various amount of p-NP-GlcNAc (0.1–1.1 mM) and various amount of inhibitor with 3.35 mU of β-N-acetylhexosaminidase A and 1.76 mU of β-N-acetylhexosaminidase P. After preincubation for 10 min at 37° C., the reaction was started by the addition of β-N-Acetylglucosaminidase and the reaction mixture was incubated for 15 min at 37° C. Then the reaction was terminated by addition of 20 μL of 0.2 M sodium carbonate.

| Compound | inhibitory activity against β-glucosidase (β-glucosidase) | inhibitory activity against α-glucosidase (α-glucosidase) | inhibition of N-acetylglucosaminidase [1] | inhibition of β-N-acetylhexosaminidase P [2] | inhibition of β-N-acetylglucosaminidases [3] | inhibition of β-N-acetylhexosaminidase A [4] |
| --- | --- | --- | --- | --- | --- | --- |
| CC(=O)NC[C@H]1N[C@H](CO)[C@@H](O)[C@@H]1O [Compound 3, (2R,3R,4R,5R)-2-Acetamidomethyl-3,4-dihydroxy-5-hydroxymethyl-pyrrolidine] | no inhibitory activity | only very weak inhibition | extremely potent inhibitors | extremely potent inhibitors | potent inhibitor | extremely potent inhibitors |
| CC(=O)NC[C@@H]1[C@@H](O)[C@H](O)[C@@H](CO)N1C [Compound 4, (2R,3R,4R,5R)-N-Methyl-(2-acetamidomethyl-3,4-dihydroxy-5-hydroxymethyl)-pyrrolidine] | no inhibitory activity | only very weak inhibition | extremely potent inhibitors | extremely potent inhibitors | – | extremely potent inhibitors |
| CCCCN1[C@H](CO)[C@@H](O)[C@H](O)[C@H]1CNC(C)=O [Compound 5, (2R,3R,4R,5R)-N-Buthyl-(2-acetamidomethyl-3,4-dihydroxy-5-hydroxymethyl)-pyrrolidine] | no inhibitory activity | only very weak inhibition | extremely potent inhibitors | extremely potent inhibitors | – | extremely potent inhibitors |
